# From paper PMC12040169 (PLOS Biology, 2025)
# The list shows a part of the results.
# Tested on: T1, CTL2-GFP (C. trachomatis L2/434/Bu, GFP-expressing)
# T1 construct: L2/434/Bu, GFP-expressing
# Parameters: species or system HeLa; Intracellular C. trachomatis growth in HeLa cells, bulk GFP fluorescence relative to DMSO
# Settings: bulk GFP, single well; 28.5 h, 10 µM; inhibitor
row,SMILES,% of control remaining [%]
1,O=C(NCCN1CCOCC1)c1nnc(C(=O)Nc2cccc(Cl)c2)s1 [CBK294405],142.461
2,CCOC(=O)C1(N)CCCC1 [CBK073836C],160.615
3,O=C(Cn1cccc(C(=O)NC2CCCC2)c1=O)NCC1(c2ccccc2)CCCC1 [CBK285975],124.693
4,O=C(Cn1nc2n(c1=O)CCCCC2)NCC(O)c1ccc(F)cc1 (stereo not shown) [CBK305187],122.309
5,COc1ccc(CCNC(=O)N(C)C2CCN(C)C2)cc1 (stereo not shown) [CBK156019],109.167
6,O=c1[nH]cc(-c2ccc(F)cc2)cc1CNCc1cccc(F)c1 [CBK284697],140.525
7,CCN(CC)CCn1c(=N)n(Cc2ccc(C(C)(C)C)cc2)c2ccccc21 [CBK268803B],107.378
8,COc1ccccc1CCCN1CCC(C(=O)NC(=O)Nc2ccccc2)CC1 [CBK034865],100
9,Fc1ccc(CSc2nnnn2-c2ccc3c(c2)OCO3)cc1 [CBK293927],139.355
10,CC(=O)Nc1ccc(S(=O)(=O)/N=C(/Nc2nc(C)cc(C)n2)Nc2ccccc2C)cc1 [CBK264101],124.937
11,Clc1ccc(C2NCCS2)c(Cl)c1 (stereo not shown) [CBK027425],134.623
12,Cc1c(S(=O)(=O)Nc2nnn[nH]2)sc2ccc(Cl)cc12 [CBK062392],137.116
13,CC(OC(=O)c1ccc2nccnc2c1)c1cccc([N+](=O)[O-])c1 (stereo not shown) [CBK297901],117.33
14,CCCC[C@H]1CC[C@H](C(=O)Oc2ccc(OC(C)C(=O)O)cc2)CC1 (stereo partly shown) [CBK160854],106.722
15,CN1CCN(c2ccc(C(=O)N3CCC(F)CC3)cc2)CC1 [CBK200265],107.206
16,COc1ccc(SC(C)C(=O)N2CCN(c3ccc([N+](=O)[O-])nc3)CC2)cc1 (stereo not shown) [CBK298282],105.725
17,COc1ccc(C(NC(=O)C2CC=CCC2C(=O)O)c2ccccc2)cc1 (stereo not shown) [CBK264264],118.005
18,O=S(=O)(CCN1CCC(Cc2ccccc2)CC1)c1ccccc1 [CBK126386],119.37
19,O=C(CCN1CCn2nc(C(O)C3CC3)cc2C1)NCc1cccs1 (stereo not shown) [CBK306603],108.652
20,CC1=C[C@@H](CNC(=O)c2cccnc2)[C@H](C(C)C)C[C@H]1CC(=O)N1CCOCC1 [CBK289053],95.8174
21,CN(C)CCN(Cc1nc2ccccc2[nH]1)Cc1cccs1 [CBK283020],132.021
22,c1ccc2c(c1)n[n+]1c3ccccc3[n-]n21 [CBK260974],123.023
23,O=C(O)CCSCC(=O)c1ccc(NS(=O)(=O)c2ccccc2)cc1 [CBK300504],135.035
24,O=C1NC2(CCCCC2)C(=O)N1CCS(=O)(=O)Oc1ccc(Br)cc1 [CBK261303],100
25,c1ccc(CCNc2nc(-c3ccc(N4CCOCC4)cc3)cn3ccnc23)nc1 [CBK037271],211.865
26,O=C(O)c1cc(/C=C/c2ccc(Br)cc2)nc2ccccc12 [CBK299805],128.172
27,O=C(NC1CC1)[C@H]1O[C@H](CCN2CCN(c3ccccc3)CC2)CC[C@@H]1O [CBK288717],115.331

row,SMILES,% of control remaining [%]
1,COc1cccc(-c2ccc(C(=O)Nc3ccc4c(c3)OCO4)c(N3CCOCC3)n2)c1 [CBK076509],114.069
2,CC(C)CNc1ncc(-c2ccc(N3CCOCC3)cc2)n2ccnc12 [CBK091273],159.075
3,CCn1ncc(S(=O)(=O)Nc2ccc3c(c2)cc(C)n3C)c1C [CBK282761],109.371
4,CCc1ccc(C(O)CNC2CCN(CC(F)F)CC2)cc1 (stereo not shown) [CBK304144],112.41
5,Cc1ccc(NC(=O)c2cnc(SCc3ccc(F)cc3)n(C)c2=O)cc1C [CBK287674],118.087
6,Clc1ccc(CN2CCC(Oc3cncc(OCC4COc5ccccc5O4)n3)C2)cc1 (stereo not shown) [CBK084364],104.235
7,CC(C)c1ccc(NS(=O)(=O)c2csc3ccnc(N4CCNCC4)c23)cc1 [CBK042343C],66.6485
8,Fc1ccc(C(c2nnnn2C2CCCCC2)N2CCCCC2)cc1 (stereo not shown) [CBK141670],70.1348
9,Cn1cccc1C(=O)Nc1cc2ccccc2c(N2CCNCC2)n1 [CBK036347T],115.576
10,Cc1cnc(C(=O)N2CCC3(CC2)CC(=O)c2cc(Cl)cc(Cl)c2O3)cn1 [CBK156502],116.53
11,Cc1c(C(=O)O)sc2ncn(CCOc3ccc(Cl)cc3)c(=O)c12 [CBK286808],95.6274
12,COc1cc(Cl)cc(/C=N\NC(=O)C2C(=O)NCC2c2ccccc2)c1O (stereo not shown) [CBK262825],109.975
13,Cc1cc2cc(C(=O)NCC3CCCN(C(C)C)C3)ccc2o1 (stereo not shown) [CBK282625],90.0264
14,Cc1ccc(-c2nccnc2OCCOc2ccccc2)cc1C [CBK106865],100
15,Cc1cc(-c2cc(=O)n(Cc3ccccc3)nc2C2CC2)on1 [CBK284365],80.5474
16,CC(c1ccc2c(c1)OCO2)c1cc2c(cc1OCCO)OCO2 (stereo not shown) [CBK200110],70.113
17,N#CCCCN1CCN(c2nccnc2OCCN2C(=O)CCC2=O)CC1 [CBK084299],108.93
18,Nc1nnc(SCC(=O)N(Cc2ccccc2F)C2CC2)s1 [CBK295179],174.451
19,CN1CCC(COC(=O)Nc2ccc3cc[nH]c3c2)CC1 [CBK200130],131.209
20,Cc1cc(C)c2c3c(sc2n1)C(=O)N(C)CC(=O)N3 [CBK287959],141.718
21,O=C(O)c1ccccc1NC1CC(=O)N(C2CCCCC2)C1 (stereo not shown) [CBK286556],116.635
22,Cc1ccc(-c2nn(CCC#N)cc2C(=O)N2CCCC2)cc1C [CBK305974],108.006
23,O=c1c(Cl)nc(Cl)c(C2CCCCC2)n1Cc1ccccc1 [CBK012671],63.1542
24,O=C(NC1CN2CCC1CC2)c1ncoc1-c1ccccc1 (stereo not shown) [CBK283888],96.8737
25,O=[N+]([O-])c1ccc2c(/C=N/c3ccc(-c4nc5ccccc5s4)cc3)c(O)ccc2c1 [CBK261483],107.745
26,CCOc1ccc(C(=O)NCCC(=O)O)cc1 [CBK261725D],113.557
27,O=C(C1CC1)N1CCCC1c1nc(-c2ccc(F)cc2)n[nH]1 (stereo not shown) [CBK283934],82.8533

# A few values from the list:
# Value of CC1=C[C@@H](CNC(=O)c2cccnc2)[C@H](C(C)C)C[C@H]1CC(=O)N1CCOCC1 [CBK289053] under % of control remaining [%]: 95.8174
# Value of COc1ccc(CCNC(=O)N(C)C2CCN(C)C2)cc1 (stereo not shown) [CBK156019] under % of control remaining [%]: 109.167
# Value of CN(C)CCN(Cc1nc2ccccc2[nH]1)Cc1cccs1 [CBK283020] under % of control remaining [%]: 132.021
# Value of Fc1ccc(CSc2nnnn2-c2ccc3c(c2)OCO3)cc1 [CBK293927] under % of control remaining [%]: 139.355

# Next part

row,SMILES,% of control remaining [%]
1,Cc1ccc(S(N)(=O)=O)cc1NC(=O)c1ccc(Br)o1 [CBK003693],125.901
2,COc1cc(CNC2CCCCC2)cc(I)c1OCC(N)=O [CBK269158C],175.006
3,O=C(NC(=S)Nc1cc(-c2nc3ccccc3[nH]2)ccc1Cl)c1ccccc1[N+](=O)[O-] [CBK268649],127.512
4,O=C(Cc1cccs1)Nc1cccc(C(=O)Nc2cccc(C(=O)O)c2)c1 [CBK268509],121.207
5,COc1ccc(S(=O)(=O)N2CCN(C(=O)COc3ccc(C)cc3)CC2)cc1 [CBK263354],100
6,Cc1ccc(N(CC(=O)Nc2ccccc2C(N)=O)S(=O)(=O)c2ccccc2)cc1C [CBK265246],94.4909
7,COc1ccc(/C=C/C(=O)O)cc1S(=O)(=O)Nc1ccc(C(=O)O)cc1 [CBK261246],100
8,COc1ccc(S(=O)(=O)Nc2c(C(=O)N3CCOCC3)sc3ncccc23)cc1OC [CBK050005],74.8813
9,COc1cc(C(=O)N2CCN(c3cc(C(C)C)ccc(CO)c3=O)CC2)cc(OC)c1OC [CBK007673],119.322
10,CCCCc1nccn1CCn1ccnc1CCCC [CBK020437],136.389
11,COc1ccc(CCN2C(=O)CC(N3CCN(Cc4ccc5c(c4)OCO5)CC3)C2=O)cc1OC (stereo not shown) [CBK074555],108.472
12,COc1ccc2nc(Nc3nc(=O)cc(CSc4nc5ccccc5s4)[nH]3)nc(C)c2c1 [CBK264854],112.622
13,CCN1CCCC1CNc1c(Cl)c(Cl)nc2c1c(=O)n(C)c(=O)n2C (stereo not shown) [CBK007287],131.008
14,COCC(=O)N1CCC(c2cc(-c3ccc(F)cc3)n[nH]2)C1 (stereo not shown) [CBK284600],139.76
15,CCN(CC)C(=O)C1CCCN(C(=O)NCC2COc3ccccc3O2)C1 (stereo not shown) [CBK156116],162.031
16,O=C(C1CCC1)N1CCC(c2nc(C3CCCC3)no2)C1 (stereo not shown) [CBK285434],107.642
17,COc1ccc(Sc2nc3cc(Cl)c(Cl)cc3nc2NC(C)C)cc1OC [CBK093792],107.64
18,O=C(NCC1CCCO1)c1ccc(CNS(=O)(=O)c2cccc(Cl)c2)cc1 (stereo not shown) [CBK267219],144.116
19,O=C(CN1C(=O)C2C3C=CC(C3)C2C1=O)OCC(=O)c1ccccc1 (stereo not shown) [CBK265112],138.988
20,CCn1cc(Cl)c(C(=O)Nc2ccsc2C(=O)OC)n1 [CBK058439],127.365
21,Cn1ccc(C(=O)NC(Cc2ccsc2)c2nccs2)cc1=O (stereo not shown) [CBK285143],121.129
22,O=C(O)CCCN1C(=O)/C(=C\c2ccccn2)SC1=S [CBK264552],119.875
23,O=C(Cc1c[nH]c2ccccc12)N1CCc2ccccc21 [CBK200366],159.32
24,COc1cc(Nc2cc(-c3ccc(NC(C)=O)cc3)ncn2)cc(OC)c1OC [CBK090710],167.348
25,O=C1NC2(CCN(C(=O)Cc3ccc(F)cc3)CC2)Oc2ccc(-c3ccccc3)cc21 [CBK115832],130.67
